Experimental data: PubChem BioAssay AID504808 (Drosophila RNAi Screening Center, 2011)
Screen: 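Fly genes required to hold E2F transcription in check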 (primary screen). Cells: Drosophila S2 cells. Reagents: long dsRNA against Drosophila genes. Read-out: 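Firefly luciferase driven by E2F sites, normalised to Renilla luciferase on the same minimal promoter, measured by plate reader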. Reading the numbers: E2F firefly: higher = more E2F reporter activity; Renilla normaliser: higher = more normaliser reporter signal. Active means: 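a knock-down counted as active when the firefly/Renilla E2F signal rose above 50%, a threshold chosen arbitrarily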.
The deposit covers about 21,000 reagents; this is a random part of those with a known target gene and a result. In the full data, 18 (0.084%) were called active. 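Raw counts without plate normalisation, one of two replicates; the ratio scores behind the calls were not deposited.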 Reagents against one gene are numbered here. Names joined by + are all predicted targets of the reagent. Not stated in the record: the amount of reagent, the time to read-out.

After knock-down of Rh2 (Rhodopsin 2), the screen gave E2F firefly, rep 1 = 1.46e5; Renilla normaliser, rep 1 = 8712; inactive.
For Cnb (Centrobin) the deposit lists E2F firefly, rep 1 = 71026; Renilla normaliser, rep 1 = 2770; inactive.
CG14212 gave E2F firefly, rep 1 = 1.27e5; Renilla normaliser, rep 1 = 6759; inactive.
Against CG1889 + CG43386, the entry reads E2F firefly, rep 1 = 1.48e5; Renilla normaliser, rep 1 = 6144; inactive.
After knock-down of Cpr49Ab (Cuticular protein 49Ab) the results were E2F firefly, rep 1 = 1.44e5; Renilla normaliser, rep 1 = 5233; inactive.
RpS17 (Ribosomal protein S17) showed E2F firefly, rep 1 = 68626; Renilla normaliser, rep 1 = 7007; inactive.
With knock-down of CG7377 the results were E2F firefly, rep 1 = 1.13e5; Renilla normaliser, rep 1 = 6216; inactive.
After knock-down of CG1172, the record shows E2F firefly, rep 1 = 1.35e5; Renilla normaliser, rep 1 = 7083; inactive.
With knock-down of CIA30 (Complex I intermediate-associated protein, 30 kDa), the record shows E2F firefly, rep 1 = 1981; Renilla normaliser, rep 1 = 1016; inactive.
Against MagR (Magnetic receptor), the entry reads E2F firefly, rep 1 = 2.14e5; Renilla normaliser, rep 1 = 6786; inactive.
Silencing of Dscam4 (Down syndrome cell adhesion molecule 4) #1 gave: E2F firefly, rep 1 = 1.44e5; Renilla normaliser, rep 1 = 4526; inactive.
Against Dscam4 (Down syndrome cell adhesion molecule 4) #2, the entry reads E2F firefly, rep 1 = 1.34e5; Renilla normaliser, rep 1 = 4642; inactive.
Against Dscam4 (Down syndrome cell adhesion molecule 4) #3, the entry reads E2F firefly, rep 1 = 91520; Renilla normaliser, rep 1 = 3903; inactive.
For Dscam4 (Down syndrome cell adhesion molecule 4) #4, the entry reads E2F firefly, rep 1 = 74021; Renilla normaliser, rep 1 = 3891; inactive.
For Dscam4 (Down syndrome cell adhesion molecule 4) #5 the deposit lists E2F firefly, rep 1 = 97910; Renilla normaliser, rep 1 = 3749; inactive.
With knock-down of wrapper, the record shows E2F firefly, rep 1 = 94193; Renilla normaliser, rep 1 = 4194; inactive.
Knock-down of CG42518 + MED9 gave: E2F firefly, rep 1 = 66998; Renilla normaliser, rep 1 = 3106; inactive.
CG32687 #1 showed E2F firefly, rep 1 = 1.12e5; Renilla normaliser, rep 1 = 5983; inactive.
After knock-down of CG32687 #2, the record shows E2F firefly, rep 1 = 1.24e5; Renilla normaliser, rep 1 = 5666; inactive.
After knock-down of CG14770, the screen gave E2F firefly, rep 1 = 1.24e5; Renilla normaliser, rep 1 = 5313; inactive.
Smyd4-2 (SET and MYND domain containing, class 4, member 2) showed E2F firefly, rep 1 = 1.23e5; Renilla normaliser, rep 1 = 5739; inactive.
Knock-down of Buffy gave: E2F firefly, rep 1 = 92847; Renilla normaliser, rep 1 = 3771; inactive.
ghi (ghiberti) showed E2F firefly, rep 1 = 1.38e5; Renilla normaliser, rep 1 = 4792; inactive.
After knock-down of CG11951 the results were E2F firefly, rep 1 = 1.42e5; Renilla normaliser, rep 1 = 6533; inactive.
Against CG30031 + deltaTry + CG30025 + 1 more the deposit lists E2F firefly, rep 1 = 1.37e5; Renilla normaliser, rep 1 = 6171; inactive.
With knock-down of cer (crammer), the screen gave E2F firefly, rep 1 = 1.42e5; Renilla normaliser, rep 1 = 5717; inactive.
Knock-down of CG13771 came out at: E2F firefly, rep 1 = 1.40e5; Renilla normaliser, rep 1 = 4904; inactive.
Against Hat1 (Histone acetyltransferase 1) the deposit lists E2F firefly, rep 1 = 1.48e5; Renilla normaliser, rep 1 = 6626; inactive.
Atg18b (Autophagy-related 18b) showed E2F firefly, rep 1 = 74608; Renilla normaliser, rep 1 = 3283; inactive.
Bka (Bekka) gave E2F firefly, rep 1 = 1.47e5; Renilla normaliser, rep 1 = 5999; inactive.
With knock-down of CG14693, the record shows E2F firefly, rep 1 = 1.43e5; Renilla normaliser, rep 1 = 6829; inactive.
With knock-down of CG12011, the record shows E2F firefly, rep 1 = 94741; Renilla normaliser, rep 1 = 3516; inactive.
With knock-down of bnk (bottleneck), the screen gave E2F firefly, rep 1 = 1.26e5; Renilla normaliser, rep 1 = 6742; inactive.
Silencing of CG3638 resulted in: E2F firefly, rep 1 = 1.00e5; Renilla normaliser, rep 1 = 5449; inactive.
c11.1 scored E2F firefly, rep 1 = 1.32e5; Renilla normaliser, rep 1 = 6067; inactive.
Knock-down of CG13958 (retired record) came out at: E2F firefly, rep 1 = 82084; Renilla normaliser, rep 1 = 3903; inactive.

Copied from above (2 entries):
MagR (Magnetic receptor) — E2F firefly, rep 1 = 2.14e5; Renilla normaliser, rep 1 = 6786; call = inactive
Dscam4 (Down syndrome cell adhesion molecule 4) #1 — E2F firefly, rep 1 = 1.44e5; Renilla normaliser, rep 1 = 4526; call = inactive
